From patent US9206241B2 (priority 2012, dated 2015)

Experiment: general procedure: Fmoc solid-phase peptide synthesis; pre-loaded Fmoc amino acid trityl resin (0.2 mmol/g, Rapp Polymere GmbH); PyBOP (4 equiv) and DIPEA (8 equiv)
Details: whole synthesis, scale 25 μmol

MAQEQTKRGGGGGDDDDIAGSTAAGQERREKLTEETDDLLDEIDDV LEENAEDFVRAYVQKGG-Glu(AMC)
isolated yield (based on initial resin loading): 4% | isolated mass: 4.3 mg
